Experimental data published in paper PMC10397248, “A novel N^6-Deoxyadenine methyltransferase METL-9 modulates C. elegans immunity via dichotomous mechanisms” (Cell Research, 2023).

Amino acid sequences for entries named in this document (tags omitted). A change or cut given only in a name is not applied to a line headed by its entry.
UniProt Q22123: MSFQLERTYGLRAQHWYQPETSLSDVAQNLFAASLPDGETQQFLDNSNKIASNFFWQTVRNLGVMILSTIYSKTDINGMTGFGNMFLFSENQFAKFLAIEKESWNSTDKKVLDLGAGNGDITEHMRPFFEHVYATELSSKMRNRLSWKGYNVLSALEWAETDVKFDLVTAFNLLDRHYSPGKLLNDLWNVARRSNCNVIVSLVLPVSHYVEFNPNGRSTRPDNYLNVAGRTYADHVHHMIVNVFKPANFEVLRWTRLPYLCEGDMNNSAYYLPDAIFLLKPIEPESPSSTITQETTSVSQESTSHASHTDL

Biological target: METL-9 (C. elegans (endogenous in C. elegans)) (UniProt Q22123)
Assay: affinity purification with mass spectrometry; METL-9 immunoprecipitation from C. elegans upon infection, followed by mass spectrometry

B1: DVE-1 (protein, UniProt Q86MI0 1-468)
chain: MFPMRVIVETVRSQHCLTCSNEGHMITDTYAIVAGTTTLNQLVETVLAALGHSSMSTSARGLIQVNNWKPLPFDQITENLDDTVENLFKDISSHVVLKILSKPSTDSNSVQCISEVKNKLLKAAVNKNPNVLTNVDNQQVKDVINTIIAGDETLLNSEQIGAVNEWLDTLETNEDRRSPTQVQRFNTLYEIPRLDKWFKSDANPSKQKMNNYLSQLNQSPFRKNNSKISYQQICNWFTQKRSSSRTLAPVDLVQVSSAQTAAQLLPGFQLNLLQSLFGEQRQKFDFYDKLDETKIVGGSDSPSPADDEIHSNSDETIQDTLFSINIKPEPEIDSIASSPDMANSMRESLSSTSPKLLSGLDLGAFSTHSSSTNSMQNANSSVFSAARSRLMFDPLTELPVLEKWFEENPHPTWMQIDQYTQCLNNCAYRENYPHISQHNVKIWFKNRRAKCKRLLNGMQEKLEQKVFV
For B1, the binding was “binds”.

Results are given in words; binding and its absence hold for the method and conditions named. In cells and extracts the contact can be indirect. Here binding means that the protein was enriched with, or labelled near, the bait; the list need not be complete.
